From paper PMC6834594, “Structure and regulation of ZCCHC4 in m^6A-methylation of 28S rRNA” (Nature Communications, 2019) come the findings set out here.

No constants are given. Whether binding was seen depends on the method and setting.

In this assay the target is ZCCHC4(24-464) with five surface mutations for crystallisation (K55A, E56A, E57A, K167A, K168A) (human) (UniProt Q9H5U6). Nature of the assay: crystal structure; ZCCHC4(24-464) five-alanine mutant with SAH, 3.1 Å; six complexes in one asymmetric unit; sitting drop, 12 °C, 0.03 M citric acid, 0.07 M Bis-Tris propane pH 7.6, 11-12% PEG3350; both purified.

B1: ZCCHC4(24-464) with five surface mutations for crystallisation (K55A, E56A, E57A, K167A, K168A) (domain or fragment, UniProt Q9H5U6 24-464)
chain: GMEVVLPLDPAVPAPLCPHGPTLLFVKVTQGAAATRRFYACSACRDRKDCNFFQWEDEKLSGARLAAREAHNRRCQPPLSRTQCVERYLKFIELPLTQRKFCQTCQQLLLPDDWGQHSEHQVLGNVSITQLRRPSQLLYPLENAATNAQYLFADRSCQFLVDLLSALGFRRVLCVGTPRLHELIKLTASGDKKSNIKSLLLDIDFRYSQFYMEDSFCHYNMFNHHFFDGKTALEVCRAFLQEDKGEGIIMVTDPPFGGLVEPLAITFKKLIAMWKEGQSQDDSHKELPIFWIFPYFFESRICQFFPSFQMLDYQVDYDNHALYKHGKTGRKQSPVRIFTNIPPNKIILPTEEGYRFCSPCQRYVSLENQHCELCNSCTSKDGRKWNHCFLCKKCVKPSWIHCSICNHCAVPDHSCEGPKHGCFICGELDHKRSTCPNIATS
Turning to B1, the binding result was “no binding”.
